From article PMC4317163
Results are given in words; binding and its absence hold for the method and conditions named. For some assays here: In cells and extracts the contact can be indirect. Some binding calls cover weakened binding; strength is not graded here. For some assays here: Sequences can lack the tags named with a protein.

Columns and labels:
[1] = target: T1, CP190 (cotransfected in S2 cells) (Drosophila) (UniProt Q24478); test: co-IP; nuclear extracts from S2 cells cotransfected with CP190 and 3 × FLAG-Pita/ZIPIC, immunoprecipitated with antibodies against CP190 (nonspecific IgG as negative control), Western blot for FLAG-tagged proteins
T1 sequence: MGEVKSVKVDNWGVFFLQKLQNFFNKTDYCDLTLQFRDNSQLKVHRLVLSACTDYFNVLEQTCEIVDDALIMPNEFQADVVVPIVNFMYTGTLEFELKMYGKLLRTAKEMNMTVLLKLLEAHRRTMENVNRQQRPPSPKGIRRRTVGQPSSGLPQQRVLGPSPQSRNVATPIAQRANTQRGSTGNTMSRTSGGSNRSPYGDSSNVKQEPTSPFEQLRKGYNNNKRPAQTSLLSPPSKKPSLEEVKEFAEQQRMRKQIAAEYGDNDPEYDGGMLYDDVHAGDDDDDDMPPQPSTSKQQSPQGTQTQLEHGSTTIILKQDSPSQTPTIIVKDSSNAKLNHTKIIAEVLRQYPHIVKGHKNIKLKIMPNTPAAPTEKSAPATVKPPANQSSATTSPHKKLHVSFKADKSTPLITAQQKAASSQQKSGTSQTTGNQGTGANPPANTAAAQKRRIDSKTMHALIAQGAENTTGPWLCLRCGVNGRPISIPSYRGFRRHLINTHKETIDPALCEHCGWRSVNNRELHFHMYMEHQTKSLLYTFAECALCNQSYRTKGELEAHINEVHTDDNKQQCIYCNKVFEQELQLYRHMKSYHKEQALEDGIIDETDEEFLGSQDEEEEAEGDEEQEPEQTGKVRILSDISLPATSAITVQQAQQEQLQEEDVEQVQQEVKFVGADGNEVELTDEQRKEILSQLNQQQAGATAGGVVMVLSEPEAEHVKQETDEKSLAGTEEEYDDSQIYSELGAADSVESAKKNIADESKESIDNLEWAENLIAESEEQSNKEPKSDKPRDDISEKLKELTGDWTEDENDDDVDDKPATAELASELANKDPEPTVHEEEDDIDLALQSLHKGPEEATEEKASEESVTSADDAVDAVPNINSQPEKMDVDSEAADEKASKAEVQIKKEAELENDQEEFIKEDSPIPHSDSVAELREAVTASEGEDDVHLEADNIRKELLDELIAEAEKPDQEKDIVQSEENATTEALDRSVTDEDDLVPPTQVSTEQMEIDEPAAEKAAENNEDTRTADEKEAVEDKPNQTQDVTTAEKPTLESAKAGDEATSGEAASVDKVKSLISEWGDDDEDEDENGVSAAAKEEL

[2] = target: T2, CP190 (endogenous, embryos) (Drosophila (endogenous in embryos)) (UniProt Q24478); test: co-IP; nuclear extracts from Drosophila embryos (0-12 h) immunoprecipitated with antibodies against CP190, Pita or ZIPIC (nonspecific IgG as negative control), Western blot for Pita, ZIPIC and CP190
T2 sequence: T1 sequence

[3] = target: T3, CP190 fused to the GAL4 DNA-binding domain (Drosophila) (UniProt Q24478); test: two-hybrid; yeast strain pJ69-4A, Clontech plasmids; CP190 or its fragments fused to the GAL4 DNA-binding domain, Pita/ZIPIC or their fragments fused to the GAL4 activating domain; growth on media without tryptophan, leucine, histidine and adenine, 30°C
T3 sequence: T1 sequence

B1: 3 × FLAG-Pita (protein, UniProt Q95RQ8 1-683)
chain: MAAKLEVREAMLTEKRVCRFCLTEQKLASIFEENPRVKTTANLPLQIMAITAIEVYAGDGMPGHICLECRLLFEHCYRFKQMCKRAETLLRQYPLTGNWPSPLEKPRAPMTMVASKKLLVVPAKTAEPSETPKKLLNTMAKSSSQVIIEDVQVLESAMVTPRTVAGSSPVPRRSHAYELKVDNNQELSMDDVQSMLEDMASELEKEFPDIPQKASPVKPKVLNKSSIRILNKGPAAPVEPRLATPKVKRDDSGNVAIVTEVLDSDLPLDDQDDPTKNAEKVATDVFPCPDCERSFPLQQLLEIHRLNHTRSRSFQCLLCEKSFFSKYDLAKHNFVHTGERPFKCAICSKAFTRKALLHRHERTHTDVPKFICVYCEKPFLSRQEMEKHAERHQKKRPFQCGVCTKSFAFKQGLERHETVHSTNLPFPCQHCERSFSTASKLARHLVAHAGKRAYPCKYCHKSYMLSHHLSRHLRTHTQTSDASFVCSECKVSYSNYNDLLDHALIHATASLKCPMCRKQIEDIDSVESHMDQHKQSERHACEFCDHIFLTQKCLQRHIEDDHVVEMEPYQNEFEDDGEGEGGVDEKEEHLDDFEDMDNVKQEEFVTEYLEDDALYEDHLDDSDESFTPPPPKQRKTNPPKDAQQSVRQTRSRDAQRITQKTGKNEGKPHHKLERNLKNRRSAK
binding [1]: binds

B2: 3 × FLAG-ZIPIC (protein, UniProt Q9VAB8 1-457)
chain: MNCCICQFSVRVPKDIHTDTVGHPPVLISELVLQCTRGTNYVLTEESSTICKKCCEKLARYHKSIQIARKLRGEILELIHSPYMSKDHKQTSYKEDDLDRETTISKFDGNIEEAQQQDEEEQELESVGTTVTLVGPAGIVEEVAEEEHTFIIKQSEEEDEFHSVDLELDIDNEIIINEEEAHEVEEVAHEIEEVAHEIEEEDLLPHDKQEAQEEDFFKEDTMSDFDEHLDGAIEYIISDGEDQEQDNESSGEYTVNIQCPSCPEKFSSRRAYNVHTKREHFPGYVCDQCGKTLQSYSGFIGHLQNHEPVKQFACPVCPERFSRKFRLKHHMAWHSGETPYQCDVCSKRFVHKVALYKHKMIHDSETKRLECQVCGFKTRTKAHLERHMRSHTGDKPFACPVCNKRFSQMYNMKAHLREHESPGTNRHRRFHCSKCTHTFINEQNYDAHVQRDDCTPV
binding [1]: binds

B3: Pita (endogenous, embryos) (protein, UniProt Q95RQ8 1-683)
chain: B1 chain
binding [2]: binds

B4: Pita fused to the GAL4 activating domain (protein, UniProt Q95RQ8 1-683)
chain: B1 chain
binding [3]: binds

B5: ZIPIC fused to the GAL4 activating domain (protein, UniProt Q9VAB8 1-457)
chain: B2 chain
binding [3]: binds

B6: ZIPIC fragment 3–167aa fused to the GAL4 activating domain (domain or fragment, UniProt Q9VAB8 3-167)
chain: CCICQFSVRVPKDIHTDTVGHPPVLISELVLQCTRGTNYVLTEESSTICKKCCEKLARYHKSIQIARKLRGEILELIHSPYMSKDHKQTSYKEDDLDRETTISKFDGNIEEAQQQDEEEQELESVGTTVTLVGPAGIVEEVAEEEHTFIIKQSEEEDEFHSVDLE
binding [3]: binds

B7: ZIPIC fragment 162–274aa fused to the GAL4 activating domain (domain or fragment, UniProt Q9VAB8 162-274)
chain: HSVDLELDIDNEIIINEEEAHEVEEVAHEIEEVAHEIEEEDLLPHDKQEAQEEDFFKEDTMSDFDEHLDGAIEYIISDGEDQEQDNESSGEYTVNIQCPSCPEKFSSRRAYNV
binding [3]: binds

B8: dCTCF (yeast two-hybrid) (protein, UniProt Q9VS55 1-818)
chain: MPRRTKKDEDPEDLQTFLNNFHKEIEGNSDEKVVNTILEAISAEAIDLDENGAEAGGSKPMEEAEADLDHAEEAEEEEEDDEDKYFIDDEGNCYIKTTPKKQKELQKKLKQAAAKPGKATRSVVSTATNKSINLRPAKSTPKATTSKPPPEPKAISVRPARAAAAKAKQSAMPPPPALVVKVPAPRGRPRKNPVIPKPEPMDLERELEELVDEPDISSMVTELSDYTVDEAAVEAATATLTPNEAEVYEFEDNATTEDENADKKDVDFVLSNKEVKLKTASSTSQNSNASGHKYSCPHCPYTASKKFLITRHSRSHDVEPSFKCSICERSFRSNVGLQNHINTHMGNKPHKCKLCESAFTTSGELVRHTRYKHTKEKPHKCTECTYASVELTKLRRHMTCHTGERPYQCPHCTYASQDMFKLKRHMVIHTGEKKYQCDICKSRFTQSNSLKAHKLIHSVVDKPVFQCNYCPTTCGRKADLRVHIKHMHTSDVPMTCRRCGQQLPDRYQYKLHVKSHEGEKCYSCKLCSYASVTQRHLASHMLIHLDEKPFHCDQCPQAFRQRQLLRRHMNLVHNEEYQPPEPREKLHKCPSCPREFTHKGNLMRHMETHDDSANAREKRRRLKLGRNVRLQKDGTVITLIKDQYVDMDRDQEENEEDDNPESYDLAEIEPENSEAEDADDDVETIVSDPIRQRIKPAPIIINKQARLAASEKQPMIINQRLRSQRGTKTFHIKEEPDNSDFTVEWQGDDGEVMVVELVNGDEEVLVKHEPSANSKISAKNCFGFEDDDDYEEYGDGENEVDGASQEFLQLMDMIEQDS
binding [3]: binds
